Laboratory results: PubChem BioAssay AID1259308 (NCATS, 2017)

Test: 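Knock-downs that increase output of a recombinant reporter protein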 (primary screen)
Cell system: human HEK293 embryonic kidney cells stably expressing firefly luciferase (HEK-CMV-Luc2-Hygro)
Knock-down reagent: single siRNA against human genes, 0.8 pmol siRNA per well
Timing: 72 h
Detection: 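Reporter luminescence and viable-cell signal on separate replicate plates, given as percent of non-targeting control and median/MAD z-scores, plus per-cell luciferase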
Scale: total luciferase, z-score and total luciferase, % of control: higher = more reporter protein produced; luciferase per cell, z-score: higher = more reporter output per viable cell; viable cells, % of control: higher = more viable cells
Hit rule: 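Active when the median/MAD z-score for overall luciferase is greater than 3; a gene was taken forward for validation with new siRNAs if at least two of its three siRNAs passed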
Meaning of the calls: active = raised luciferase; inactive = no rise
Here is one part, drawn at random, of about 59,000 deposited reagents. Over the whole deposit, about 1,510 (2.6%) got an active call. 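Calls use total luciferase alone and ignore viability, so some active siRNAs may act by altering cell number.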 The numbers tell different reagents against one gene apart.

gene symbol | reagent no. | total luciferase, z-score | total luciferase, % of control | luciferase per cell, z-score | viable cells, % of control | Outcome
IL25 | 1 | 0.856 | 98.9 | 1 | 84.9 | inactive
IL25 | 2 | 0.585 | 93.5 | -0.374 | 115 | inactive
IL25 | 3 | -0.634 | 69.3 | -1.41 | 112 | inactive
OSBPL6 | 1 | 0.54 | 92.6 | 0.388 | 93.4 | inactive
OSBPL6 | 2 | 0.249 | 86.8 | 0.0924 | 94.7 | inactive
OSBPL6 | 3 | 0.331 | 88.5 | -0.333 | 108 | inactive
MINPP1 | 1 | -0.646 | 69 | 0.201 | 73.2 | inactive
MINPP1 | 2 | 0.996 | 102 | 0.588 | 97.3 | inactive
MINPP1 | 3 | -1.58 | 50.6 | -2.61 | 112 | inactive
DNAAF4 | 1 | -0.561 | 70.7 | 0.991 | 60.9 | inactive
DNAAF4 | 2 | 0.513 | 92.1 | 0.891 | 81.4 | inactive
DNAAF4 | 3 | 0.411 | 90.1 | -0.173 | 105 | inactive
C1R | 1 | 0.831 | 98.4 | 0.421 | 98.4 | inactive
C1R | 2 | -1.1 | 60.1 | -1.22 | 92.5 | inactive
C1R | 3 | -2.86 | 25 | -3.15 | 64.1 | inactive
PGCKA1 | 1 | -0.344 | 75 | 0.0893 | 81.9 | inactive
PGCKA1 | 2 | 1.96 | 121 | 1.42 | 93 | inactive
PGCKA1 | 3 | -0.189 | 78.1 | -0.571 | 101 | inactive
ARK2C | 1 | -0.097 | 80 | 2.14 | 50.9 | inactive
ARK2C | 2 | 0.119 | 84.3 | -0.133 | 97.5 | inactive
ARK2C | 3 | 0.916 | 100 | 0.273 | 104 | inactive
LAMA5 | 1 | -1.02 | 61.6 | -1.06 | 91.1 | inactive
LAMA5 | 2 | -1.35 | 54.9 | -1.33 | 87 | inactive
LAMA5 | 3 | 0.67 | 95.2 | -0.0725 | 108 | inactive
LMX1A | 1 | 2.02 | 122 | 2.09 | 78.5 | inactive
LMX1A | 2 | -0.582 | 70.3 | -0.195 | 82.7 | inactive
LMX1A | 3 | 0.4 | 89.9 | -0.128 | 104 | inactive
TPM4 | 1 | 0.463 | 91.1 | 0.855 | 81.3 | inactive
TPM4 | 2 | -0.141 | 79.1 | -0.103 | 90.8 | inactive
TPM4 | 3 | 0.375 | 89.3 | 0.0549 | 98.4 | inactive
LRRC4C | 1 | -1.92 | 43.8 | -2.42 | 92.5 | inactive
LRRC4C | 2 | 0.142 | 84.7 | -0.00189 | 94.7 | inactive
LRRC4C | 3 | -0.529 | 71.4 | -1.52 | 119 | inactive
KCNK13 | 1 | 2.21 | 126 | 1.59 | 92.6 | inactive
KCNK13 | 2 | -0.169 | 78.5 | 0.161 | 84.1 | inactive
KCNK13 | 3 | 0.556 | 92.9 | 0.539 | 90.1 | inactive
RC3H1 | 1 | 3.19 | 145 | 2.77 | 78.3 | active
RC3H1 | 2 | -0.0431 | 81 | -0.174 | 94.8 | inactive
RC3H1 | 3 | -1.05 | 61 | -1.33 | 96.8 | inactive
